Results published in US20230047208A1, “RNA Splicing Modulation” (The General Hospital Corporation, priority 2020, published 2023).
The source gives many values for each of these; only a part stands here.

Tested on: wildtype (WT) human fibroblast cell lines
Assay: Transcriptome-wide splicing by RNA sequencing (RNASeq), exon triplet PSI change;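 on Effect: six WT fibroblast lines treated seven days versus DMSO vehicle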;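 on T-PSI: T-PSI is average treated PSI after seven days of treatment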
Format: cell-based
Parameters: key to Effect: Exclusion; Inclusion; Unchanged
Conditions: seven days
Source text: FIG. 2A provides a representation of an exon triplet. Exon U is upstream of Exon X, which is upstream of Exon D. R1, R2 and R3 represent RNA sequencing (RNASeq) reads spanning the regions between two adjacent exons. UI1, I1X, XI2 and I2D are four regions flanking the four splice sites of the exon-triplet. Each flanking region consists of 25 exonic base pairs and 75 intronic base pairs.
FIG. 2B provides a volcano plot showing the ψ (PSI: Percent Spliced-In) changes in splicing after treatment with Compound (I). Each dot represents one of the 161,097 expressed exon triplets in human fibroblasts. The x axis represents the ψ changes after treatment and the y axis represents the False Discovery Rate (FDR) (log 10 transformed). […] The horizontal dashed line indicates an FDR of 0.1. The dots on the right side of the right vertical dashed line and above the horizontal dashed line represent the exon-triplets with an increase for Exon X inclusion (Δψ≥0.1 and FDR<0.1) while the dots on left side of the left vertical dashed line and above the horizontal dashed line represent an increase for Exon X exclusion (Δψ≤−0.1 and FDR<0.1). Black dots in-between the two vertical dashed lines represent exon-triplets unchanged from the treatment.
In some aspects, analysis is performed on data derived from the assay to measure the magnitude of splicing to determine the amount of exons spliced into an mRNA transcript that is produced in the presence of Compound (I) relative to the amount in the absence of Compound (I) or presence of a negative control. In a preferred aspect, the method utilized is calculation of change in Percent Spliced In (ΔPSI). […] The ΔPSI value is derived from the formula: […]
The values for “a” and “b” represent the number of reads supporting the probability for potential inclusion or exclusion of an exon in an RNA transcript. The “a” value is derived from the number of reads within an exon triplet covering, in 5′ to 3′ order: the last few bases (>1 nucleotide) of an upstream exon operably linked to the first few bases (>1 nucleotide) of a middle exon. The “b” value is derived from the number of reads within an exon triplet covering, in 5′ to 3′ order: the last few bases (>1 nucleotide) of the middle exon operably linked to the first few bases (>1 nucleotide) of a downstream exon. The number of reads will indicate whether the splice junction of a middle exon has been identified as potentially having a CNN Motif(s) by the CNN Model described herein, wherein the inclusion or exclusion of the middle exon may be modulated in the presence of Compound (I) to produce one or more mature RNA isoforms from the gene transcript. The value for “c” represents the number of reads supporting the exclusion of the middle exon.
The effect on splicing modulation and corresponding splice differences toward exon inclusion or exclusion was determined by counting the RNASeq reads covering two splice junctions of exon triplets (three consecutive exons: Exon U, Exon X, Exon D) and the corresponding intervening introns, then comparing the change in Percent Spliced In (ΔPSI or Δψ) of the middle exon (Exon X) after treatment (as shown in FIG. 2A)^52,53. 934 exon triplets were identified showing differential middle exon inclusion or exclusion in response to Compound (I) treatment. Of these, 254 were exon inclusion events (Δψ≥0.1 and FDR<0.1) and 680 were exon exclusion events (Δψ≤−0.1 and FDR<0.1) (as shown in FIG. 2B). […] The splicing results were evaluated by RT-PCR in independent replicate experiments, confirming all the calculated Δψ values. […]

[1] = SMARCA1 Exon 128627017-128627052
[2] = SMPDL3A Exon 123116822-123117035
[3] = SNRPA1 Exon 101826419-101826498

Clc1nc(NCc2ccncc2)c2cc[nH]c2n1 [Compound (I), 2-chloro-N-(pyridin-4-ylmethyl)-7H-pyrrolo[2,3-d]pyrimidin-4-amine]
Effect (SLMAP Exon 57893611-57893733): Unc
T-PSI (SLMAP Exon 57893611-57893733): 0.899
ΔPSI (SLMAP Exon 57893611-57893733): 0.000
Effect (SLMO1 Exon 12427040-12427110): Exc
T-PSI (SLMO1 Exon 12427040-12427110): 0.854
ΔPSI (SLMO1 Exon 12427040-12427110): −0.130
Effect (SLTM Exon 59191668-59192082): Unc
T-PSI (SLTM Exon 59191668-59192082): 0.731
ΔPSI (SLTM Exon 59191668-59192082): 0.001
Effect (SLTM Exon 59191668-59192136): Unc
T-PSI (SLTM Exon 59191668-59192136): 0.763
ΔPSI (SLTM Exon 59191668-59192136): −0.007
Effect (SLTM Exon 59204762-59204809): Inc
T-PSI (SLTM Exon 59204762-59204809): 0.928
ΔPSI (SLTM Exon 59204762-59204809): 0.104
Effect (SMAD5 Exon 135483521-135483595): Exc
T-PSI (SMAD5 Exon 135483521-135483595): 0.590
ΔPSI (SMAD5 Exon 135483521-135483595): −0.197
Effect [1]: Inc
T-PSI [1]: 0.870
ΔPSI [1]: 0.253
Effect (SMARCD1 Exon 50481146-50481268): Exc
T-PSI (SMARCD1 Exon 50481146-50481268): 0.548
ΔPSI (SMARCD1 Exon 50481146-50481268): −0.252
Effect (SMC5 Exon 72882839-72882891): Exc
T-PSI (SMC5 Exon 72882839-72882891): 0.854
ΔPSI (SMC5 Exon 72882839-72882891): −0.125
Effect (SMEK2 Exon 55800755-55800913): Exc
T-PSI (SMEK2 Exon 55800755-55800913): 0.819
ΔPSI (SMEK2 Exon 55800755-55800913): −0.136
Effect (SMEK2 Exon 55805383-55805478): Unc
T-PSI (SMEK2 Exon 55805383-55805478): 0.445
ΔPSI (SMEK2 Exon 55805383-55805478): −0.005
Effect (SMG7 Exon 183471388-183471526): Unc
T-PSI (SMG7 Exon 183471388-183471526): 0.200
ΔPSI (SMG7 Exon 183471388-183471526): −0.006
Effect [2]: Exc
T-PSI [2]: 0.702
ΔPSI [2]: −0.152
Effect (SMURF2 Exon 62590109-62590222): Unc
T-PSI (SMURF2 Exon 62590109-62590222): 0.111
ΔPSI (SMURF2 Exon 62590109-62590222): −0.001
Effect (SMURF2 Exon 62602720-62602758): Exc
T-PSI (SMURF2 Exon 62602720-62602758): 0.742
ΔPSI (SMURF2 Exon 62602720-62602758): −0.150
Effect (SNAPC5 Exon 66787668-66787757): Exc
T-PSI (SNAPC5 Exon 66787668-66787757): 0.646
ΔPSI (SNAPC5 Exon 66787668-66787757): −0.133
Effect (SNED1 Exon 242002208-242002321): Exc
T-PSI (SNED1 Exon 242002208-242002321): 0.660
ΔPSI (SNED1 Exon 242002208-242002321): −0.220
Effect (SNHG14 Exon 25330337-25330469): Unc
T-PSI (SNHG14 Exon 25330337-25330469): 0.852
ΔPSI (SNHG14 Exon 25330337-25330469): 0.001
Effect (SNHG14 Exon 25360446-25360803): Exc
T-PSI (SNHG14 Exon 25360446-25360803): 0.860
ΔPSI (SNHG14 Exon 25360446-25360803): −0.119
Effect (SNHG15 Exon 45023956-45024025): Exc
T-PSI (SNHG15 Exon 45023956-45024025): 0.832
ΔPSI (SNHG15 Exon 45023956-45024025): −0.127
Effect (SNRNP70 Exon 49605371-49605430): Inc
T-PSI (SNRNP70 Exon 49605371-49605430): 0.302
ΔPSI (SNRNP70 Exon 49605371-49605430): 0.102
Effect (SNRNP70 Exon 49605371-49605442): Inc
T-PSI (SNRNP70 Exon 49605371-49605442): 0.299
ΔPSI (SNRNP70 Exon 49605371-49605442): 0.100
Effect (SNRNP70 Exon 49605371-49606844): Inc
T-PSI (SNRNP70 Exon 49605371-49606844): 0.325
ΔPSI (SNRNP70 Exon 49605371-49606844): 0.114
Effect [3]: Exc
T-PSI [3]: 0.499
ΔPSI [3]: −0.209
Effect (SNRPG Exon 70516482-70516504): Exc
T-PSI (SNRPG Exon 70516482-70516504): 0.696
ΔPSI (SNRPG Exon 70516482-70516504): −0.160
Effect (SNX14 Exon 86248556-86248582): Exc
T-PSI (SNX14 Exon 86248556-86248582): 0.668
ΔPSI (SNX14 Exon 86248556-86248582): −0.160
Effect (SNX21 Exon 44468961-44469097): Exc
T-PSI (SNX21 Exon 44468961-44469097): 0.167
ΔPSI (SNX21 Exon 44468961-44469097): −0.148
Effect (SNX21 Exon 44469087-44469097): Exc
T-PSI (SNX21 Exon 44469087-44469097): 0.263
ΔPSI (SNX21 Exon 44469087-44469097): −0.160
Effect (SPATA7 Exon 88859737-88859832): Inc
T-PSI (SPATA7 Exon 88859737-88859832): 0.925
ΔPSI (SPATA7 Exon 88859737-88859832): 0.255
Effect (SPATA20 Exon 48625026-48625128): Exc
T-PSI (SPATA20 Exon 48625026-48625128): 0.815
ΔPSI (SPATA20 Exon 48625026-48625128): −0.133
Effect (SPATA20 Exon 48625026-48625315): Exc
T-PSI (SPATA20 Exon 48625026-48625315): 0.531
ΔPSI (SPATA20 Exon 48625026-48625315): −0.259
Effect (SPATA20 Exon 48625081-48625128): Exc
T-PSI (SPATA20 Exon 48625081-48625128): 0.792
ΔPSI (SPATA20 Exon 48625081-48625128): −0.151
Effect (SPATA20 Exon 48625081-48625315): Exc
T-PSI (SPATA20 Exon 48625081-48625315): 0.347
ΔPSI (SPATA20 Exon 48625081-48625315): −0.300
Effect (SPATA20 Exon 48626647-48626848): Exc
T-PSI (SPATA20 Exon 48626647-48626848): 0.856
ΔPSI (SPATA20 Exon 48626647-48626848): −0.123
Effect (SPDL1 Exon 169017757-169017833): Inc
T-PSI (SPDL1 Exon 169017757-169017833): 0.355
ΔPSI (SPDL1 Exon 169017757-169017833): 0.248
Effect (SPDL1 Exon 169017760-169017833): Inc
T-PSI (SPDL1 Exon 169017760-169017833): 0.345
ΔPSI (SPDL1 Exon 169017760-169017833): 0.241
Effect (SPEN Exon 16202697-16203173): Unc
T-PSI (SPEN Exon 16202697-16203173): 0.861
ΔPSI (SPEN Exon 16202697-16203173): 0.002
Effect (SPIDR Exon 48320423-48320523): Unc
T-PSI (SPIDR Exon 48320423-48320523): 0.878
ΔPSI (SPIDR Exon 48320423-48320523): −0.007
Effect (SPPL2A Exon 51018270-51018323): Inc
T-PSI (SPPL2A Exon 51018270-51018323): 0.554
